## Results of single-concentration screens

By UniProt entry, the sequences of proteins in these tests, tags left out. Residues count along the entry.
UniProt P9WPC5, whole entry: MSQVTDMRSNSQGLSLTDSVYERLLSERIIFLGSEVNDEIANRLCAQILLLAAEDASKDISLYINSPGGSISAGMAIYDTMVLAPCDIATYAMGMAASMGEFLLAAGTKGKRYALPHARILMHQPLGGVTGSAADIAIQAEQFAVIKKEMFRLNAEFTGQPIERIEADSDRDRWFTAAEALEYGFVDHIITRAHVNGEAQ
UniProt P9WPC3, whole entry partner: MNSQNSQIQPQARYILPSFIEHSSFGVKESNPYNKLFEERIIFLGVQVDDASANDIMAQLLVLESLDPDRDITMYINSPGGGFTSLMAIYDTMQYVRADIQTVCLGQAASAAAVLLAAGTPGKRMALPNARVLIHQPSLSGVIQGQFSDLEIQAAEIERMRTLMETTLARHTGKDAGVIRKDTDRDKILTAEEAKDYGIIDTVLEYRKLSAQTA
UniProt P9WNZ1, whole entry: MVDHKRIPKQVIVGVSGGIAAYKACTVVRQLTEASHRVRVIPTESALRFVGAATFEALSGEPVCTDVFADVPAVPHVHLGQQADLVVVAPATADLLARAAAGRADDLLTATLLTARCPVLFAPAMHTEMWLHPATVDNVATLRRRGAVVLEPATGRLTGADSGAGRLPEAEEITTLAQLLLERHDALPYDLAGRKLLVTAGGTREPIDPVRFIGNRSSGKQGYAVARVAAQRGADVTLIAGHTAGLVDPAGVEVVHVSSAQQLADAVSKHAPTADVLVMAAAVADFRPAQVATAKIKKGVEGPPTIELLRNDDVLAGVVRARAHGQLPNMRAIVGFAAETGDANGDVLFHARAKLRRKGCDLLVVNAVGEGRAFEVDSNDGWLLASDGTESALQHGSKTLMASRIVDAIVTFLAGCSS
UniProt Q8IDJ8, 1-583: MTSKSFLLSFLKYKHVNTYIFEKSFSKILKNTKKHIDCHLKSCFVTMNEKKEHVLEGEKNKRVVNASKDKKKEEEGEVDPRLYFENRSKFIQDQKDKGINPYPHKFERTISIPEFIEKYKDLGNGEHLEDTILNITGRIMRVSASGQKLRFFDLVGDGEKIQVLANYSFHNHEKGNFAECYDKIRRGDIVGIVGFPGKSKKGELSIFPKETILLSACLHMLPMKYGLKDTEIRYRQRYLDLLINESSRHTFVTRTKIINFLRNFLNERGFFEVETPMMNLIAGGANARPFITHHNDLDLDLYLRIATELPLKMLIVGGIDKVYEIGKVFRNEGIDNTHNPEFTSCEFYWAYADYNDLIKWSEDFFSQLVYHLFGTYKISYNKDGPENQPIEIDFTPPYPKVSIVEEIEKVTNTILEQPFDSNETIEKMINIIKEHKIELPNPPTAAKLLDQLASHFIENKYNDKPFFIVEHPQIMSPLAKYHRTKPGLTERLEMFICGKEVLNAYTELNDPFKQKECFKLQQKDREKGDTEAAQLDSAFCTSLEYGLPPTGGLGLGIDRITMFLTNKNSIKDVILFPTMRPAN

Measurements from “University of Dundee, Small-Polar-MMV Screening Library” (2021), ChEMBL document CHEMBL3988442.

ClpP1P2: 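Protease assay of ClpP1P2, read by the AMC dye that it sets free. Target: ClpP1P2, Mycobacterium tuberculosis (UniProt P9WPC5 and UniProt P9WPC3). Compounds at 50 µM. Higher reads as stronger inhibition, judged from the few compounds that gave an IC50. Most other retested compounds had strongly negative values. About 69,000 compounds were tested under these conditions; 0.015% (about 10) showed 50% or more at least once.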
CoaBC: 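Enzyme assay of CoaBC with a phosphate dye (Biomol Green) read at 650 nm. Target: Coenzyme A biosynthesis protein CoaBC, Mycobacterium tuberculosis (UniProt P9WNZ1). Compounds at 30 µM. Higher reads as stronger inhibition, judged from the few compounds that gave an IC50. Most strong results did not repeat in a second test. Of about 67,000 compounds tested this way, about 40 (0.06%) reached 50% or more in at least one test.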
PfKRS1: 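Lysine-tRNA ligase, Plasmodium falciparum 3D7 (UniProt Q8IDJ8). Enzyme assay of the cytosolic lysyl-tRNA synthetase in 384-well plates, read by luminescence. Concentration: 30 µM. Higher reads as stronger inhibition, judged from the few compounds that gave an IC50. Of about 69,000 compounds tested this way, about 49 (0.071%) reached 50% or more in at least one test.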
Leishmania in macrophages: 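Cell assay of Leishmania donovani living inside macrophages; the read-out is not stated. Concentration: 30 µM. The record gives no direction; compounds that gave an IC50 in retests scored well above the rest, so higher reads as stronger inhibition. Of about 69,000 compounds tested this way, about 1,000 (1.5%) reached 50% or more in at least one test.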

Values are the deposited “Percent Effect”, in %.
How 0% and 100% were set is not recorded. Most values in the screen are low, and negative values occur.
Compounds were drawn at random from those tested, without regard to their results.
Two or more numbers in one place are separate tests of the same structure; such repeats can differ widely.
A dash means the value is not listed here; it may have been measured.

SMILES | ClpP1P2 | CoaBC | PfKRS1 | Leishmania in macrophages
Cc1nn(Cc2ccc(C(=O)NCCCN3CCCC3=O)o2)c(C)c1Cl | -10.71% | -1.687% | 1.762% | 19.74%
CN1N=C(C(=O)NCCc2ccc(OC3CCCC3)cc2)CCC1=O | -0.5531% | 0.8917% | -2.974% | 17.66%
Cc1cc(CCC(=O)N2CCCC2)nc(C2CCCN2)n1 (centres undefined) | 7.906% | -0.9685% | 4.37% | 15.93% and 8.453%
COc1ccc(C)cc1CN1CCN(Cc2nccn2C)C(C)C1 (centres undefined) | -12.25% | 0.2475% | -0.8726% | 40.22%
O=c1[nH]c2nc(NCC3CCCO3)ncc2c(=O)n1-c1ccc(F)cc1 (centres undefined) | -14.62% | 2.133% | 3.636% | 51.53%
CS(=O)(=O)N1C[C@@H]2CCN(C(=O)c3ccco3)[C@@H]2C1 | 3.42% | -1.426% | 4.381% | -
O=C(O)C(F)(F)F.[H][C@@]12CN(C(=O)c3ccsc3)C[C@]1([H])C(=O)N(CCN(C)C)C2 | - | - | - | -9.31%
O[C@@H]1CN(Cc2ccc(F)c(F)c2)CC[C@H]1NCc1ccccn1 | -3.701% | -4.686% | 7.458% | -
CCc1nnc2n1CC(CNCC1CCCC1)CC2 (centres undefined) | 12.79% | 4.28% | 5.231% | 3.629%
CN1CC2(CCCN(Cc3nnc(-c4ccccc4)o3)CC2)OC1=O (centres undefined) | -8.769% | 0.1233% | 3.601% | -15.04%
COCCN1C[C@@H](C)[C@@]2(COCCN(C(=O)c3ccncc3)C2)C1 | -1.782% | -1.29% | 1.472% | -
O=C(O)C(F)(F)F.O=C(O)C(F)(F)F.[H][C@@]12CCCO[C@]1([H])[C@H](Oc1ccccn1)CN2c1nnc(C)s1 | - | - | - | 33.25%
c1ccc(-c2noc(CCCN3CCCC3Cn3cccn3)n2)cc1 (centres undefined) | -24.05% | -3.842% | 0.4587% | 10.02%
Cc1nc(CN2CCCC(Cn3cc(CCO)nn3)C2)c[nH]1 (centres undefined) | -15.15% | 4.051% | -3.33% | -5.512%
CCC(CC)NC(=O)Cn1cc(-c2ccccc2)cn1 | -12.44% | 6.087% | -0.8265% | -5.349%
Fc1cccc(-c2nnn3c2COC(CNCc2cccs2)C3)c1.O=C(O)C(F)(F)F (centres undefined) | - | - | - | -33.36%
CN(CCCc1cc(-c2ccc(F)cc2)n(C)n1)CC(=O)NC(N)=O | 9.703% | 0% | 2.906% | 13.8%
Cc1ccc(N2CCCc3sc(C(=O)NCCO)nc32)nn1 | -10.17% | 15.52% | 2.031% | 7.727%
CC(C)NC(=O)N1C[C@H]2C[C@H](C(=O)NCc3ccccc3)[C@@H](C1)O2 | 3.59% | 0.6435% | 3.681% | -
Cc1cc(C(=O)N2CCN(c3ccncc3Cl)CC2)n(C)n1 | -2.673% | 13.72% | -0.1297% | -4.424%
Cc1ccccc1C(=O)NC[C@@H]1CCN(C(=O)c2cscn2)C[C@H]1O | -7.65% | 3.406% | 2.889% | 16.6%
CN(C)C(CNS(=O)(=O)c1cnn(C)c1)c1cccc(F)c1 (centres undefined) | 8.339% | 3.926% | -0.7224% | 7.641%
CCN(CC)c1ccc2ccc(C(=O)N(CCOC)CCOC)cn12 | 15.63% | - | 0.9233% | -
CCn1ccnc1CN1CCCN(C(=O)c2ccc(C#N)cc2)CC1 | 5.253% | - | 5.884% | -11%
O=C(O)C(F)(F)F.[H][C@@]12CCN(Cc3ccccn3)[C@]1([H])CC[C@H](C(=O)Nc1cnccn1)O2 | - | - | - | 28.13%
CN(C)C(=O)NC[C@@H]1OC[C@H]2CN(Cc3cccc(F)c3)CC[C@H]21 | -6.101% | 6.876% | 9.313% | -
Cc1ocnc1CNC(=O)Nc1ccc(N2CCOC(C)C2)cc1 (centres undefined) | -6.979% | 8.738% | 0.8292% | -19.88%
[H][C@]12CC[C@]([H])(CC(=O)NC1)N2C(=O)CCCc1ccc(Cl)cc1 | - | - | - | 13.55%
O=c1cc2c(nn1CN1CCN(c3ccc(F)cc3)CC1)CCC2 | -15.4% | 1.272% | 4.276% | 5.118% and -7.261%
Cc1cc(-n2nc(C)nc2-c2cn(CCN)nn2)ccn1 | -13.48% | -0.2439% | 3.913% | -1.999%
O=C(O)C(F)(F)F.O=C(O)C(F)(F)F.O=C(O)C(F)(F)F.[H][C@]12CC(Cn3cccn3)N(C)[C@@]1([H])CCN(Cc1ccc(C)s1)C2 (some centres undefined) | - | - | - | -11.42%
Cn1cnc(S(=O)(=O)N2CC3(CCN(Cc4ccncc4)C3)C2)c1 | 13.32% | 2.847% | 2.396% | -
COc1ccccc1C(C)(C)NC(=O)c1cc(NC(C)=O)ccc1F | 4.224% | 2.584% | 3.038% | 8.699%
CN(C)c1cc(CNC(=O)c2ccccc2S(C)(=O)=O)ccn1 | -27.65% | -1.364% | 0.3374% | 15.08%
O=C(O)C1(n2cccn2)CCN(c2nc(-c3ccccc3)no2)CC1 | -3.505% | -1.08% | 2.553% | 10.98%
[H][C@]12CN(C(C)=O)CCN1C[C@H](CO)[C@H]2c1ccccc1 | - | - | - | 2.823%
O=C(O)C(F)(F)F.[H][C@@]12COC[C@]1(COCC(=O)N(C)C)CN(Cc1ccco1)C2 | - | - | - | 11.51%
CCOCC(=O)N1Cc2cnc(-c3ccccc3)nc2C1 | 0.6866% | -6.517% | 8.832% | 20.58%
CCn1cc(CN2CCCC(COc3ccccc3F)C2)cn1 (centres undefined) | -2.27% | 0.122% | 0.7434% | 32.99%
c1cc(CNCc2ccnc(N3CCCC3)c2)c2c(c1)OCCO2 | 2.9% | -20.32% | -1.679% | -
CCN(CC)Cc1cc(=O)n2c(n1)CN(C(=O)c1ccnnc1)CCC2.O=C(O)C(F)(F)F | - | - | - | 5.847%
C[C@H]1C[C@H]2CN(C(=O)C3=CCCC3)CC[C@H]2O1 | -8.69% | 3.562% | 2.753% | -
CN1CCN(C(=O)C2CCN(c3cccnn3)C2)CC1 (centres undefined) | -1.883% | 4.136% | 0.2074% | 17.81% and 23.52%
COc1ccc(Cn2cc(C(=O)N(C)Cc3cnccn3)nn2)cc1 | -0.6013% | 5.425% | 2.974% | 9.77%
Cc1ccc(-n2nnnc2SCN2CCCCC2=O)cc1C | -1.736% | 2.016% | -2.288% | -13.13%
Cc1ncccc1Oc1nccnc1C1CCCN(C(C)C)C1 (centres undefined) | -7.012% | 4.369% | 2.028% | 20.49% and 1.279%
CCn1nc(C)c(CNC(=O)c2cn(CC3CCCO3)nn2)c1C (centres undefined) | -12.77% | 3.125% | -0.4004% | 27.91%
Cc1cccc(CN2C(=O)CCC23CCN(C(=O)NC(C)C)CC3)n1.O=C(O)C(F)(F)F | - | - | - | -4.352%
CCN(Cc1cnc(C)cn1)C1CCN(c2ccccc2)C1=O (centres undefined) | 3.084% | 2.675% | -0.8051% | 2.163%
O=C1NCCN(Cc2ccccc2)C1CC(=O)N1CCc2n[nH]cc2C1 (centres undefined) | -3.854% | 7.239% | 4.134% | -8.914%
O=C(N[C@@H]1CN(c2ncccn2)C[C@@H]2CCCO[C@@H]21)c1cnccn1 | 5.846% | 0.6345% | 2.017% | -
CCN1CCC(CC(=O)NCCc2nc(C)cc(C)n2)CC1 | 7.394% | 7.118% | 2.044% | 21.61%
Cc1nc[nH]c1CN1CCCC12CCN(c1nc3ccccc3s1)CC2 | 0.2011% | 3.929% | 5.168% | 30.05%
Cc1cc(CN2CCCC(Cn3cncn3)C2)on1 (centres undefined) | -3.639% | -5.094% | 1.313% | 40.16%
Fc1cc(CNCc2ccc3c(c2)CCO3)ccc1N1CCOCC1 | -6.046% | -15.99% | 0.555% | 40.09%
Cc1cccc(CN2CCCC(O)(CNCCc3c[nH]cn3)C2=O)c1 (centres undefined) | -7.076% | -8.436% | -1.074% | 18.65%
COc1ccc(CN(Cc2cncn2C)CC2CCCO2)cc1OC.O=C(O)CC(O)(CC(=O)O)C(=O)O (centres undefined) | - | - | - | 21.46%
CN(C)c1ccccc1C(=O)N1CCCC(c2cccc(C(=O)O)c2)C1 (centres undefined) | 5.487% | 5.646% | 5.159% | 34.31%
CC(=O)N1CCC1c1cc(N2CC(O)C2)nc(C)n1 (centres undefined) | -6.372% | 0.7884% | 0.3272% | 32.79%
CN(C)Cc1nnc(C2CCCN(c3nc(C(N)=O)cs3)C2)n1C (centres undefined) | 2.864% | 6.695% | 11.63% | 13.25%
CC1CN(C)c2ccccc2CN1C(=O)CSc1ccncc1 (centres undefined) | -9.937% | 4.051% | 5.668% | 19.44%
O=C(NCCn1cccn1)c1ccn(-c2cccc(F)c2)n1 | -23.97% | 0.6519% | -0.1455% | -6.038%
CN1CCN(Cc2cnc3n2CCN(C(=O)c2ccoc2)C3)CC1 | -3.869% | -1.269% | 1.347% | 39.13%

For reference, 6 entries once more:

| SMILES | ClpP1P2 | CoaBC | PfKRS1 | Leishmania in macrophages |
|---|---|---|---|---|
| `CCn1nc(C)c(CNC(=O)c2cn(CC3CCCO3)nn2)c1C` (centres undefined) | -12.77% | 3.125% | -0.4004% | 27.91% |
| `O=C(O)C1(n2cccn2)CCN(c2nc(-c3ccccc3)no2)CC1` | -3.505% | -1.08% | 2.553% | 10.98% |
| `CCN(CC)Cc1cc(=O)n2c(n1)CN(C(=O)c1ccnnc1)CCC2.O=C(O)C(F)(F)F` | - | - | - | 5.847% |
| `Cn1cnc(S(=O)(=O)N2CC3(CCN(Cc4ccncc4)C3)C2)c1` | 13.32% | 2.847% | 2.396% | - |
| `COc1ccc(C)cc1CN1CCN(Cc2nccn2C)C(C)C1` (centres undefined) | -12.25% | 0.2475% | -0.8726% | 40.22% |
| `CN(C)c1cc(CNC(=O)c2ccccc2S(C)(=O)=O)ccn1` | -27.65% | -1.364% | 0.3374% | 15.08% |